# Source: the supplement of paper PMC8728848
# The list shows a part of the results.
# B1: ArathEULS3 TAP (Arabidopsis thaliana) (protein)
# chain: IDENLYFQGGSMDEKTTGWRGGHVVEGLAGELEQLRARLEHHPQGQREPGGGGSLEITSLYKKAGFMEHHHQHHRHHQRDDGEDDRQSFGVPPPHVDAPPQPHGLYQSQPHFDPYAPTPQAPAPYRSETQFEPHAPPPYRSEPYFETPAPPPSFGHVSHVGHQSPNESYPPEHHRYGGYQQPSNSLLESHGDHSGVTHVAHHSSNQPQSSSGVYHKPDENRLPDNLAGLAGRATVKVYSKAEPNYNLTIRDGKVILAPADPSDEAQHWYKDEKYSTKVKDADGHPCFALVNKATGEAMKHSVGATHPVHLIRYVPDKLDESVLWTESKDFGDGYRTIRMVNNTRLNVDAYHGDSKSGGVRDGTTIVLWDWNKGDNQLWKIFPF
# Experiments:
# Assay in all cases: glycan array binding signal (z-score within array); higher = stronger binding
# Settings in all cases: glycan notation: IUPAC condensed, linker removed
# [1] = biological target: GlcNAc(b1-2)[GlcNAc(b1-6)]Man(a1-6)[GlcNAc(b1-4)][GlcNAc(b1-2)Man(a1-3)]Man(b1-4)GlcNAc(b1-4)GlcNAc
# Outline: (§1)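 Glycan array binding is given as a within-array Z-score, which can be read as non-binding when negative. The arrays, 3228 of them, came from the Consortium for Functional Glycomics database and were retained only where the protein sequence was available. Z-scores were averaged across arrays of the same protein sequence at different concentrations or buffers and across linkers.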
# GlcNAc(b1-3)Fuc = biological target: GlcNAc(b1-3)Fuc
# Outline: as §1
# GlcNAc(b1-3)Gal = biological target: GlcNAc(b1-3)Gal
# Outline: as §1
# [2] = biological target: GlcNAc(b1-3)Gal(b1-3)GalNAc
# Outline: as §1
# GlcNAc(b1-3)Gal(b1-4)Glc = biological target: GlcNAc(b1-3)Gal(b1-4)Glc
# Outline: as §1
# [3] = biological target: GlcNAc(b1-3)Gal(b1-4)GlcNAc
# Outline: as §1
# [4] = biological target: GlcNAc(b1-3)Gal(b1-4)GlcNAc(b1-2)Man(a1-3)[GlcNAc(b1-3)Gal(b1-4)GlcNAc(b1-2)Man(a1-6)]Man(b1-4)GlcNAc(b1-4)GlcNAc
# Outline: as §1
# [5] = biological target: GlcNAc(b1-3)Gal(b1-4)GlcNAc(b1-2)Man(a1-3)[GlcNAc(b1-3)Gal(b1-4)GlcNAc(b1-2)Man(a1-6)]Man(b1-4)GlcNAc(b1-4)[Fuc(a1-6)]GlcNAc
# Outline: as §1
# [6] = biological target: GlcNAc(b1-3)Gal(b1-4)GlcNAc(b1-2)[GlcNAc(b1-3)Gal(b1-4)GlcNAc(b1-6)]Man(a1-6)[GlcNAc(b1-3)Gal(b1-4)GlcNAc(b1-2)Man(a1-3)]Man(b1-4)GlcNAc(b1-4)GlcNAc
# Outline: as §1
# [7] = biological target: GlcNAc(b1-3)Gal(b1-4)GlcNAc(b1-3)Gal(b1-4)GlcNAc
# Outline: as §1
# [8] = biological target: GlcNAc(b1-3)Gal(b1-4)GlcNAc(b1-3)Gal(b1-4)GlcNAc(b1-2)Man(a1-3)[GlcNAc(b1-3)Gal(b1-4)GlcNAc(b1-3)Gal(b1-4)GlcNAc(b1-2)Man(a1-6)]Man(b1-4)GlcNAc(b1-4)GlcNAc
# Outline: as §1
# [9] = biological target: GlcNAc(b1-3)Gal(b1-4)GlcNAc(b1-3)Gal(b1-4)GlcNAc(b1-2)Man(a1-3)[GlcNAc(b1-3)Gal(b1-4)GlcNAc(b1-3)Gal(b1-4)GlcNAc(b1-2)Man(a1-6)]Man(b1-4)GlcNAc(b1-4)[Fuc(a1-6)]GlcNAc
# Outline: as §1
# [10] = biological target: GlcNAc(b1-3)Gal(b1-4)GlcNAc(b1-3)Gal(b1-4)GlcNAc(b1-2)[GlcNAc(b1-3)Gal(b1-4)GlcNAc(b1-3)Gal(b1-4)GlcNAc(b1-6)]Man(a1-6)[GlcNAc(b1-3)Gal(b1-4)GlcNAc(b1-3)Gal(b1-4)GlcNAc(b1-2)Man(a1-3)]Man(b1-4)GlcNAc(b1-4)[Fuc(a1-6)]GlcNAc
# Outline: as §1
# [11] = biological target: GlcNAc(b1-3)Gal(b1-4)GlcNAc(b1-3)Gal(b1-4)GlcNAc(b1-3)Gal(b1-4)GlcNAc(b1-2)Man(a1-3)[GlcNAc(b1-3)Gal(b1-4)GlcNAc(b1-3)Gal(b1-4)GlcNAc(b1-3)Gal(b1-4)GlcNAc(b1-2)Man(a1-6)]Man(b1-4)GlcNAc(b1-4)GlcNAc
# Outline: as §1
# [12] = biological target: GlcNAc(b1-3)Gal(b1-4)GlcNAc(b1-3)Gal(b1-4)GlcNAc(b1-3)Gal(b1-4)GlcNAc(b1-2)Man(a1-3)[GlcNAc(b1-3)Gal(b1-4)GlcNAc(b1-3)Gal(b1-4)GlcNAc(b1-3)Gal(b1-4)GlcNAc(b1-2)Man(a1-6)]Man(b1-4)GlcNAc(b1-4)[Fuc(a1-6)]GlcNAc
# Outline: as §1
# [13] = biological target: GlcNAc(b1-3)Gal(b1-4)GlcNAc(b1-3)Gal(b1-4)GlcNAc(b1-3)Gal(b1-4)GlcNAc(b1-2)[GlcNAc(b1-3)Gal(b1-4)GlcNAc(b1-3)Gal(b1-4)GlcNAc(b1-3)Gal(b1-4)GlcNAc(b1-6)]Man(a1-6)[GlcNAc(b1-3)Gal(b1-4)GlcNAc(b1-3)Gal(b1-4)GlcNAc(b1-3)Gal(b1-4)GlcNAc(b1-2)Man(a1-3)]Man(b1-4)GlcNAc(b1-4)[Fuc(a1-6)]GlcNAc
# Outline: as §1
# [14] = biological target: GlcNAc(b1-3)Gal(b1-4)GlcNAc(b1-3)Gal(b1-4)GlcNAc(b1-3)Gal(b1-4)GlcNAc(b1-3)Gal(b1-4)GlcNAc(b1-2)Man(a1-3)[GlcNAc(b1-3)Gal(b1-4)GlcNAc(b1-3)Gal(b1-4)GlcNAc(b1-3)Gal(b1-4)GlcNAc(b1-3)Gal(b1-4)GlcNAc(b1-2)Man(a1-6)]Man(b1-4)GlcNAc(b1-4)GlcNAc
# Outline: as §1
# [15] = biological target: GlcNAc(b1-3)Gal(b1-4)GlcNAc(b1-3)Gal(b1-4)GlcNAc(b1-3)Gal(b1-4)GlcNAc(b1-3)Gal(b1-4)GlcNAc(b1-2)Man(a1-3)[GlcNAc(b1-3)Gal(b1-4)GlcNAc(b1-3)Gal(b1-4)GlcNAc(b1-3)Gal(b1-4)GlcNAc(b1-3)Gal(b1-4)GlcNAc(b1-2)Man(a1-6)]Man(b1-4)GlcNAc(b1-4)[Fuc(a1-6)]GlcNAc
# Outline: as §1
# [16] = biological target: GlcNAc(b1-3)Gal(b1-4)GlcNAc(b1-3)Gal(b1-4)GlcNAc(b1-3)Gal(b1-4)GlcNAc(b1-3)Gal(b1-4)GlcNAc(b1-2)[GlcNAc(b1-3)Gal(b1-4)GlcNAc(b1-3)Gal(b1-4)GlcNAc(b1-3)Gal(b1-4)GlcNAc(b1-3)Gal(b1-4)GlcNAc(b1-6)]Man(a1-6)[GlcNAc(b1-3)Gal(b1-4)GlcNAc(b1-3)Gal(b1-4)GlcNAc(b1-3)Gal(b1-4)GlcNAc(b1-3)Gal(b1-4)GlcNAc(b1-2)Man(a1-3)]Man(b1-4)GlcNAc(b1-4)[Fuc(a1-6)]GlcNAc
# Outline: as §1
binder,measurement,setting,value
B1,glycan array binding signal (z-score),[1],-0.975
same,glycan array binding signal (z-score),GlcNAc(b1-3)Fuc,-0.796
same,glycan array binding signal (z-score),GlcNAc(b1-3)Gal,-1
same,glycan array binding signal (z-score),[2],1.14
same,glycan array binding signal (z-score),GlcNAc(b1-3)Gal(b1-4)Glc,-0.706
same,glycan array binding signal (z-score),[3],-0.59
same,glycan array binding signal (z-score),[4],-0.107
same,glycan array binding signal (z-score),[5],-0.354
same,glycan array binding signal (z-score),[6],1.41
same,glycan array binding signal (z-score),[7],0.442
same,glycan array binding signal (z-score),[8],2.26
same,glycan array binding signal (z-score),[9],-0.27
same,glycan array binding signal (z-score),[10],0.973
same,glycan array binding signal (z-score),[11],1.52
same,glycan array binding signal (z-score),[12],2.42
same,glycan array binding signal (z-score),[13],-0.128
same,glycan array binding signal (z-score),[14],0.229
same,glycan array binding signal (z-score),[15],0.348
same,glycan array binding signal (z-score),[16],3.16

# Taken from the listing (two entries):
binder,measurement,setting,value
B1,glycan array binding signal (z-score),[7],0.442
same,glycan array binding signal (z-score),[8],2.26
